Assay results reported in PubChem BioAssay AID602313 (National Center for Advancing Translational Sciences (NCATS), 2012).
In all, about 390,000 compounds went through this assay and about 760 (0.19%) were called active. The inconclusive results got no clear call from the source; some entries with a clear call stand among them for comparison. Calls come from the whole dose curve; as a rule, active = well fitted inhibition curve with a large enough effect; inconclusive = small, poorly fitted or top-dose-only effect; inactive = flat fitted curve, though single readings scatter. Potencies beside an inconclusive call are fits to weak or partial responses and may not hold up.

Test: qHTS for Inhibitors of Vif-A3F Interactions: qHTS; note: nearly all actives have a fitted effect of over 65% in size; for activity, negative = active: % of control where 0% means no effect
Settings: HeLa A3F-eYFP + Vif (tagged APOBEC3F with the HIV-1 protein that degrades it), YFP fluorescence increase; series mostly up to 46.1 µM; activity, negative = active: at the top concentration
Method in brief: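 HeLa cells stably expressing A3F-eYFP plus Vif, plated and incubated overnight at 37 deg C, then exposed to compounds overnight at 37 deg C. Blocked degradation read as raised yellow fluorescence (Ex 488/Em 500-530).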
Potency is the fitted concentration of half-maximal effect.

Row | SMILES | Potency | activity, negative = active
1 | COc1ccc(-c2cnc(SCC(=O)Nc3cc(C)on3)n2Cc2ccco2)cc1 | inconclusive: 20 µM [inhibitor, single point] | 
2 | CC(=O)c1nnn(-c2ccc([N+](=O)[O-])cc2C)c1C |  | inactive: -0.914%
3 | COc1cccc(/C=N/NC(N)=S)c1OCc1cccc(Cl)c1 | inconclusive: 11.2 µM [inhibitor, partial curve, poor fit] | 
4 | CCCCN(CCCC)c1nc2ccccc2nc1C(C#N)C(=O)NCCCOC (stereo not drawn) | inconclusive: 5.01 µM [inhibitor, single point] | 
5 | CCN(CC)c1nc(C)c(C(=S)Nc2cc([N+](=O)[O-])ccc2Cl)s1 | active: 11.2 µM | 
6 | CN(C(=S)NC(=O)Cc1ccccc1)c1ccccc1 | inconclusive: 20 µM [inhibitor, partial curve, poor fit] | 
7 | O=C(Nc1ccccc1[N+](=O)[O-])c1cc(S(=O)(=O)N2CCOCC2)cs1 | inconclusive: 5.62 µM [inhibitor, single point] | 
8 | CN(C)C1(CN=Cc2cc(Cl)cc([N+](=O)[O-])c2O)CCCCC1 |  | inactive: 8.63%
9 | CC[n+]1cc(C)ccc1/C=C/c1ccc(N(C)C)cc1 | inconclusive: 22.4 µM [inhibitor, partial curve, poor fit] | 
10 | COCCN(CCOC)S(=O)(=O)c1ccc(C(=O)Nc2nc3c(s2)CCc2ccccc2-3)cc1 | inconclusive: 6.31 µM [inhibitor, full curve, poor fit] | 
11 | Cc1cc(C)c(C2C3=C(Nc4c2c(C)nn4-c2ccccn2)c2ccccc2C3=O)c(C)c1 (stereo not drawn) | inconclusive: 35.5 µM [inhibitor, single point] | 
12 | COc1cccc(OCC(=O)Nc2c3c(nn2-c2ccc(F)cc2)CS(=O)(=O)C3)c1 | inconclusive: 0.316 µM [inhibitor, full curve, poor fit] | 
13 | Cc1nc(N2CCCCC2)sc1C(=O)c1cccc([N+](=O)[O-])c1 | inconclusive: 35.5 µM [inhibitor, single point] | 
14 | CC(C)c1ccc(/C=C/C(=O)NC(=S)Nc2ccc(CN3CCOCC3)cc2)cc1 | inconclusive: 10 µM [inhibitor, partial curve, poor fit] | 
15 | CC(C)(C)[C@H]1CCC(=O)N([C@H](CSc2ccccc2)Cc2ccccc2)CC1 | inconclusive: 22.4 µM [inhibitor, single point] | 
16 | CN(C)S(=O)(=O)c1ccc2c(c1)/C(=C/c1cc3c([nH]1)CCCC3)C(=O)N2 | inconclusive: 2.24 µM [inhibitor, full curve, poor fit] | 
17 | C/C(=N\NC(=O)c1ccc(F)cc1)c1cccc(NC(=O)c2cccc(F)c2)c1 |  | inactive: 3.77%
18 | O=C(O)c1cccc(-c2ccc(/C=N/Nc3ccc([N+](=O)[O-])cc3)o2)c1 | active: 22.4 µM | 
19 | COc1cc2sc3ccc(C#Cc4ccccn4)cc3c(=O)c2cc1OC | inconclusive: 7.94 µM [inhibitor, partial curve, poor fit] | 
20 | O=C(Cn1c(=O)n(-c2ccccc2)c(=O)c2c3c(sc21)CCCC3)Nc1ccc(F)cc1F | inconclusive: 15.8 µM [inhibitor, single point] | 
21 | CC1=CC(C)(C)NC(=S)N1c1cc(C)cc(C)c1 | inconclusive: 22.4 µM [inhibitor, single point] | 
22 | Cc1ccc(/C=N/NC(=O)COc2ccccc2-c2ccccc2)cc1 | inconclusive: 25.1 µM [inhibitor, single point] | 
23 | CCOc1ccc(C(=O)/C=C/c2cn(CN3CCN(C)CC3)c3ccccc23)cc1 |  | inactive: -21.8%

Grouped by structure, those above containing four or more nitrogen atoms
Row | SMILES | Potency | activity, negative = active
1 | COc1ccc(-c2cnc(SCC(=O)Nc3cc(C)on3)n2Cc2ccco2)cc1 | inconclusive: 20 µM [inhibitor, single point] | 
2 | CC(=O)c1nnn(-c2ccc([N+](=O)[O-])cc2C)c1C |  | inactive: -0.914%
4 | CCCCN(CCCC)c1nc2ccccc2nc1C(C#N)C(=O)NCCCOC (stereo not drawn) | inconclusive: 5.01 µM [inhibitor, single point] | 
5 | CCN(CC)c1nc(C)c(C(=S)Nc2cc([N+](=O)[O-])ccc2Cl)s1 | active: 11.2 µM | 
11 | Cc1cc(C)c(C2C3=C(Nc4c2c(C)nn4-c2ccccn2)c2ccccc2C3=O)c(C)c1 (stereo not drawn) | inconclusive: 35.5 µM [inhibitor, single point] | 

The listing continues.

Row | SMILES | Potency | activity, negative = active
24 | COc1ccccc1/C=C/C=N/Nc1cccc(C(=O)O)c1 |  | inactive: -11%
25 | CCn1ncc(-c2csc(N)n2)c1C | inconclusive: 35.5 µM [inhibitor, single point] | 
26 | CCOC(=O)/C=C(\C)Sc1cc(O)c2ccccc2c1O | active: 22.4 µM | 
27 | O=C(C(=O)N1CC=C(c2ccccc2)CC1)c1c[nH]c2ccccc12 |  | inactive: -13%
28 | Cc1cccc(NC(=S)NC(=O)c2ccc(Br)o2)c1 | inconclusive: 35.5 µM [inhibitor, single point] | 
29 | COc1ccc(COC(=O)CN2C(=O)NC3(CC(C)CC(C)(C)C3)C2=O)cc1F (stereo not drawn) | inconclusive: 2.51 µM [inhibitor, partial curve, poor fit] | 
30 | COc1ccc(/C=C2/SC(=S)N(CCC(=O)O)C2=O)cc1 |  | inactive: -10.3%
31 | O=S(=O)(c1ccc(NC(=S)NCc2ccco2)cc1)N1CCCC1 |  | inactive: -7.57%
32 | CN(C)N(C)C(=O)C(O)(c1ccccc1)c1ccccc1 | inconclusive: 5.62 µM [inhibitor, single point] | 
33 | COc1ccc(CCNC(=O)c2ccc(Nc3nc4ccccc4n4nnnc34)cc2)cc1OC | inconclusive: 35.5 µM [inhibitor, single point] | 
34 | Cc1cccc(N(CC(O)Cn2c3ccccc3c3ccccc32)S(=O)(=O)c2ccc(F)cc2)c1 (stereo not drawn) | inconclusive: 35.5 µM [inhibitor, single point] | 
35 | CN(CCCNC(=O)c1cc2c(Cl)nc3ccccc3c2s1)Cc1ccccc1 | inconclusive: 35.5 µM [inhibitor, single point] | 
36 | O=C(N/N=C/c1ccc(OCCCF)cc1)c1cc(OCC(F)(F)F)ccc1OCC(F)(F)F |  | inactive: -1.3%
37 | CC1CCc2c(sc3nc(-c4cc5cc(Br)ccc5oc4=O)[nH]c(=O)c23)C1 (stereo not drawn) |  | inactive: -0.272%
38 | Cc1cc(S(=O)(=O)N2CCOCC2)ccc1OCC(=O)N1CCC(C)CC1 | inconclusive: 6.31 µM [inhibitor, single point] | 
39 | O=C(CNC(=O)c1ccco1)OCC(=O)c1ccc([N+](=O)[O-])cc1 |  | inactive: -7.58%
40 | Cc1ccccc1N/N=C/c1c(C)nc2ccccn12 |  | inactive: 4.23%
41 | Nc1nc(N2CCN(C/C=C/c3ccccc3)CC2)nc2ccccc12 |  | inactive: 0.133%
42 | O=C(CN1CCN(S(=O)(=O)c2ccc(Cl)c(Cl)c2)CC1)N1CCCCC1 | inconclusive: 8.91 µM [inhibitor, partial curve, poor fit] | 
43 | Cc1c(Cl)cccc1NC(=O)CSc1nc2ncc(Cl)cc2[nH]1 | inconclusive: 35.5 µM [inhibitor, single point] | 
44 | O=C1C2C3C=CC(C3)C2C(=O)N1CCN1CCN(Cc2ccc([N+](=O)[O-])cc2)CC1 (stereo not drawn) | inconclusive: 5.62 µM [inhibitor, single point] | 
45 | CCC(=O)Nc1ccc(C(=O)NNC(=O)CCCCC(=O)NNC(=O)c2ccc(NC(=O)CC)cc2)cc1 | inconclusive: 22.4 µM [inhibitor, single point] | 
46 | COc1cc(/C=C2\Oc3cc(O)ccc3C2=O)ccc1O | inconclusive: 35.5 µM [inhibitor, single point] | 

Row | SMILES | Potency | activity, negative = active
47 | FC(F)(F)c1cccc(-c2nc3nc(Cl)c(Cl)nc3[nH]2)c1 |  | inactive: 0.608%
48 | CCCN(C(=O)CSc1n[nH]c(-c2ccc(OC)cc2)n1)c1c(N)n(Cc2ccccc2)c(=O)[nH]c1=O | active: 25.1 µM | 
49 | COc1ccc(NC(=O)N(CCC(C)C)C(C)c2cccs2)c(OC)c1 (stereo not drawn) |  | inactive: -4.66%
50 | C/C(=N/N=C(\C)c1ccccc1O)c1ccccc1O | active: 17.8 µM | 
51 | COc1cccc2c1ncc1c(-c3ccc(C)cc3)nn(-c3cccc([N+](=O)[O-])c3)c12 | inconclusive: 4.47 µM [inhibitor, single point] | 
52 | Cc1ccccc1Cn1ccc(NC(=O)c2nn(C)cc2[N+](=O)[O-])n1 | inconclusive: 35.5 µM [inhibitor, partial curve, poor fit] | 
53 | Cn1c(/C=C/c2ccc(Br)cc2)nc2ccccc2c1=O | inconclusive: 8.91 µM [inhibitor, partial curve, poor fit] | 
54 | Cc1ccc(C)c(C2C(=O)c3ccccc3C2=O)c1 | inconclusive: 5.62 µM [inhibitor, single point] | 
55 | CCOC(=O)N1CCN(C(=O)c2cccn3c(=O)c4sccc4nc23)CC1 | inconclusive: 5.01 µM [inhibitor, full curve] | 
56 | O=C(NC(=S)NCCC1=CCCCC1)c1ccco1 | inconclusive: 22.4 µM [inhibitor, single point] | 
57 | CCCCOc1ccc(NC(=O)CSc2ccc(C(=O)O)cn2)cc1 |  | inactive: -3.63%
58 | CCSc1nc2ccccc2c(=O)n1Cc1ccc(F)cc1 | inconclusive: 15.8 µM [inhibitor, single point] | 
59 | Cc1ccc(S(=O)(=O)N(C)C)cc1NC(=O)C1CCN(C(=O)Nc2ccccc2)CC1 | inconclusive: 22.4 µM [inhibitor, single point] | 
60 | CC(C)c1ccc(NC(=S)Nc2ccc(OC(F)(F)F)cc2)cc1 |  | inactive: 17.7%
61 | CCn1cnc2c(=O)oc3ccc(S(=O)(=O)N4CCN(c5cc(C)ccc5C)CC4)cc3c21 |  | inactive: 0.414%
62 | Cc1ccc(OCCCC(=O)Nc2nnc(C3CCCO3)s2)c(C)c1 (stereo not drawn) | inconclusive: 7.08 µM [inhibitor, partial curve] | 
63 | CCOC(=O)C1=C(C)NC(=O)CC1c1cc(OC)c(OC)cc1Br (stereo not drawn) | inconclusive: 6.31 µM [inhibitor, single point] | 
64 | O=C(OC12CC3CC(CC(C3)C1)C2)c1ccc(NCc2cc(O)ccc2O)cc1 | active: 22.4 µM | 
65 | Nc1nc(NCCc2ccccc2)nc(NCc2ccccc2)c1[N+](=O)[O-] | inconclusive: 8.91 µM [inhibitor, partial curve, poor fit] | 
66 | O=C(NC1CCCC1)C(c1ccsc1)N(Cc1ccccc1)C(=O)Cc1cccs1 (stereo not drawn) | inconclusive: 6.31 µM [inhibitor, single point] | 
67 | COc1ccc(NC(=S)N=Nc2c(O)[nH]c3ccccc23)cc1 | inconclusive: 5.62 µM [inhibitor, single point] | 
68 | O=C(CC1(O)C(=O)N(CCc2ccccc2)c2ccc(Br)cc21)c1ccccc1 (stereo not drawn) | inconclusive: 22.4 µM [inhibitor, single point] | 
